Data from patent US12011455B2, “Enhancing plasmin activity to prevent soft tissue calcification” (Vanderbilt University, priority 2016, dated 2024).
“Also recorded” adds a separate entry of the source. At least one compound was matched to its structure with a doubt left.

What was measured:
Format in all cases: in vivo, mouse
[1] = system: CTX-injured skeletal muscle of mice; assay: Cardiotoxin-induced muscle injury model, radiographic/μCT soft tissue calcification and HO; settings: Plg+/− mice, 7 DPI, vs control
Experimental: Cardiotoxin-Induced Muscle Injury Model: Skeletal muscle injury was induced by an intramuscular injection of 40 μL of 10 nM Cardiotoxin (CTX, Accurate Chemical and Scientific Corp; Westbury, NY) in the posterior compartments of the lower extremities of male C57/B6 mice. Briefly, following anesthetization with Isoflurane, CTX was injected into the lateral aspect of the posterior compartment using a 28.5 G, 0.5 cc insulin syringe. The CTX induces massive local myocyte depolarization, leading to myocyte death. However, muscle resident stem cells are unaffected by the CTX, thereby allowing for muscle regeneration following injury. […]
Radiographic Analysis and Quantification of HO: Quantification was performed as described. […] These images underwent post-image standardization and were quantified with the previously validated heterotopic ossification scoring scale. […] A blinded reviewer assessed all scores (a score of 1=0-24%, a score of 2=25%-49%, a score of 3=50%-74%, and a score of 4=>75% of the lower extremity containing radiographically evident HO).
Ex vivo μCT Imaging and Quantification of HO: μCT mages were acquired (μCT40, Scanco Medical AG, Bassersdorf, Switzerland) following specimen harvest of injured hindlimbs at 55 kVp, 145 uA, 200 ms integration, 500 projections per 180° rotation, with a 20 μm isotropic voxel size. […] Mineral volume was then calculated using the Scanco evaluation software.

CTX-injured Plg^+/− mice = assay: Histologic analysis of CTX-injured muscle of Plg+/− mice
[2] = system: combined burned and CTX injected WT mice; assay: Combined cutaneous burn and CTX muscle injury model, HO quantification; settings: 30% TBSA burn plus CTX injury, vs control

SMILES: O=P(O)(O)C(O)(Cn1ccnc1)P(=O)(O)O [pyrophosphate analogue, Zoledronic acid]
- soft tissue calcification after CTX injury (μCT/radiographs) [1]: significantly reduced soft tissue calcification; also recorded: marked reduction of soft tissue calcification
- dystrophic calcification (Von Kossa) (CTX-injured Plg^+/− mice): prevented dystrophic calcification
- heterotopic ossification (HO), H&E (CTX-injured Plg^+/− mice; 28 DPI): prevented HO at 28 DPI
- resolution of muscle necrosis and late muscle regeneration (myogenesis) (CTX-injured Plg^+/− mice; 28 DPI): muscle necrosis was not resolved and myogenesis did not ensue; also recorded: resolution of necrotic muscle occurred with depletion of α2AP and not pyrophosphate analogue treatment
- heterotopic ossification (HO), H&E (CTX-injured Plg^+/− mice; 28 DPI, listed as non-hydrolysable pyrophosphate analogue): completely prevented HO
- HO (μCT reconstructions and HO quantification) [2]: prevented HO; also recorded: significant reduction of HO
